Screen size: about 340,000 compounds; about 6,200 (1.8%) were called active. The source calls these results inconclusive, neither active nor inactive. The call rests on the fitted dose curve; in most records, active means well fitted activation curve with a large enough effect; inconclusive means small, poorly fitted or top-dose-only effect; inactive means no such curve, though single readings can be large or run the other way.
test: A quantitative high throughput screen for small molecules that induce DNA re-replication in SW480 colon adenocarcinoma cells.; further: nearly all actives have a fitted effect of over 55% in size; conditions: Hoechst DNA content imaging, 48 h
Potency means the concentration at half of the fitted maximal effect.

| Structure (SMILES) | Potency |
| --- | --- |
| CCCN1CCC(Nc2cc(OC)cc(OC)c2)CC1 | inconclusive: 32.6 µM |
| CC(C)c1ccc(C(=O)NCC2(N3CCOCC3)CCCCC2)cc1 | inconclusive: 7.31 µM |
| Cc1cc(C)cc(N(C(=O)c2ccccc2)C2CCN(C(=O)OC(C)(C)C)CC2)c1 | inconclusive: 29.1 µM |
